Further values from the same series stand in other lists.
How the values were obtained:
E. coli AG100A = test: EtBr efflux by real-time fluorometry; settings: 20 µM, + glucose
E. coli AG100tet = test: EtBr efflux by real-time fluorometry; settings: 80 µM, + glucose

Structure (SMILES): CCCOc1ccc(-c2cc(OCCN3CCNCC3)c3ccccc3n2)cc1 [PQQ4R, 4-(2-(piperazin-1-yl)ethoxy)-2-(4-propoxyphenyl) quinolone]
- Fluorescence raw data, Channel Cycling A.530/585hp (E. coli AG100A; cycle 1): 5.606
- Fluorescence raw data, Channel Cycling A.530/585hp (E. coli AG100A; cycle 2): 5.311
- Fluorescence raw data, Channel Cycling A.530/585hp (E. coli AG100A; cycle 3): 5.0425
- Fluorescence raw data, Channel Cycling A.530/585hp (E. coli AG100A; cycle 4): 4.7307
- Fluorescence raw data, Channel Cycling A.530/585hp (E. coli AG100A; cycle 5): 4.679
- Fluorescence raw data, Channel Cycling A.530/585hp (E. coli AG100A; cycle 6): 4.45
- Fluorescence raw data, Channel Cycling A.530/585hp (E. coli AG100A; cycle 7): 4.322
- Fluorescence raw data, Channel Cycling A.530/585hp (E. coli AG100A; cycle 8): 4.281
- Fluorescence raw data, Channel Cycling A.530/585hp (E. coli AG100A; cycle 9): 4.194
- Fluorescence raw data, Channel Cycling A.530/585hp (E. coli AG100A; cycle 10): 4.14
- Fluorescence raw data, Channel Cycling A.530/585hp (E. coli AG100A; cycle 11): 4.111
- Fluorescence raw data, Channel Cycling A.530/585hp (E. coli AG100A; cycle 12): 4.165
- Fluorescence raw data, Channel Cycling A.530/585hp (E. coli AG100A; cycle 13): 4.177
- Fluorescence raw data, Channel Cycling A.530/585hp (E. coli AG100A; cycle 14): 4.086
- Fluorescence raw data, Channel Cycling A.530/585hp (E. coli AG100A; cycle 15): 4.047
- Fluorescence raw data, Channel Cycling A.530/585hp (E. coli AG100A; cycle 16): 4.171
- Fluorescence raw data, Channel Cycling A.530/585hp (E. coli AG100A; cycle 17): 4.122
- Fluorescence raw data, Channel Cycling A.530/585hp (E. coli AG100A; cycle 18): 4.052
- Fluorescence raw data, Channel Cycling A.530/585hp (E. coli AG100A; cycle 19): 4.146
- Fluorescence raw data, Channel Cycling A.530/585hp (E. coli AG100A; cycle 20): 4.0945
- Fluorescence raw data, Channel Cycling A.530/585hp (E. coli AG100A; cycle 21): 4.078
- Fluorescence raw data, Channel Cycling A.530/585hp (E. coli AG100A; cycle 22): 4.068
- Fluorescence raw data, Channel Cycling A.530/585hp (E. coli AG100A; cycle 23): 4.059
- Fluorescence raw data, Channel Cycling A.530/585hp (E. coli AG100A; cycle 24): 4.008
- Fluorescence raw data, Channel Cycling A.530/585hp (E. coli AG100A; cycle 25): 3.945
- Fluorescence raw data, Channel Cycling A.530/585hp (E. coli AG100A; cycle 26): 3.983
- Fluorescence raw data, Channel Cycling A.530/585hp (E. coli AG100A; cycle 27): 3.9596
- Fluorescence raw data, Channel Cycling A.530/585hp (E. coli AG100A; cycle 28): 3.9645
- Fluorescence raw data, Channel Cycling A.530/585hp (E. coli AG100A; cycle 29): 3.95
- Fluorescence raw data, Channel Cycling A.530/585hp (E. coli AG100A; cycle 30): 3.922
- Fluorescence raw data, Channel Cycling A.530/585hp (E. coli AG100A; cycle 31): 3.866
- Fluorescence raw data, Channel Cycling A.530/585hp (E. coli AG100A; cycle 32): 3.901
- Fluorescence raw data, Channel Cycling A.530/585hp (E. coli AG100A; cycle 33): 3.889
- Fluorescence raw data, Channel Cycling A.530/585hp (E. coli AG100A; cycle 34): 3.872
- Fluorescence raw data, Channel Cycling A.530/585hp (E. coli AG100A; cycle 35): 3.819
- Fluorescence raw data, Channel Cycling A.530/585hp (E. coli AG100A; cycle 36): 3.8799
- Fluorescence raw data, Channel Cycling A.530/585hp (E. coli AG100A; cycle 37): 3.7995
- Fluorescence raw data, Channel Cycling A.530/585hp (E. coli AG100A; cycle 38): 3.822
- Fluorescence raw data, Channel Cycling A.530/585hp (E. coli AG100A; cycle 39): 3.833
- Fluorescence raw data, Channel Cycling A.530/585hp (E. coli AG100A; cycle 40): 3.824
- Fluorescence raw data, Channel Cycling A.530/585hp (E. coli AG100A; cycle 41): 3.848
- Fluorescence raw data, Channel Cycling A.530/585hp (E. coli AG100A; cycle 42): 3.911
- Fluorescence raw data, Channel Cycling A.530/585hp (E. coli AG100A; cycle 43): 3.844
- Fluorescence raw data, Channel Cycling A.530/585hp (E. coli AG100A; cycle 44): 3.857
- Fluorescence raw data, Channel Cycling A.530/585hp (E. coli AG100A; cycle 45): 3.887
- Fluorescence raw data, Channel Cycling A.530/585hp (E. coli AG100A; cycle 46): 3.873
- Fluorescence raw data, Channel Cycling A.530/585hp (E. coli AG100A; cycle 47): 3.8177
- Fluorescence raw data, Channel Cycling A.530/585hp (E. coli AG100A; cycle 48): 3.877
- Fluorescence raw data, Channel Cycling A.530/585hp (E. coli AG100A; cycle 49): 3.876
- Fluorescence raw data, Channel Cycling A.530/585hp (E. coli AG100A; cycle 50): 3.822
- Fluorescence raw data, Channel Cycling A.530/585hp (E. coli AG100A; cycle 51): 3.896
- Fluorescence raw data, Channel Cycling A.530/585hp (E. coli AG100A; cycle 52): 3.865
- Fluorescence raw data, Channel Cycling A.530/585hp (E. coli AG100A; cycle 53): 3.909
- Fluorescence raw data, Channel Cycling A.530/585hp (E. coli AG100A; cycle 54): 3.8333
- Fluorescence raw data, Channel Cycling A.530/585hp (E. coli AG100A; cycle 55): 3.815
- Fluorescence raw data, Channel Cycling A.530/585hp (E. coli AG100A; cycle 56): 3.832
- Fluorescence raw data, Channel Cycling A.530/585hp (E. coli AG100A; cycle 57): 3.751
- Fluorescence raw data, Channel Cycling A.530/585hp (E. coli AG100A; cycle 58): 3.746
- Fluorescence raw data, Channel Cycling A.530/585hp (E. coli AG100A; cycle 59): 3.734
- Fluorescence raw data, Channel Cycling A.530/585hp (E. coli AG100A; cycle 60): 3.735
- Fluorescence raw data, Channel Cycling A.530/585hp (E. coli AG100A; cycle 61): 3.678
- Fluorescence raw data, Channel Cycling A.530/585hp (E. coli AG100tet; cycle 4): 3.127
- Fluorescence raw data, Channel Cycling A.530/585hp (E. coli AG100tet; cycle 5): 3.247
- Fluorescence raw data, Channel Cycling A.530/585hp (E. coli AG100tet; cycle 6): 3.276
- Fluorescence raw data, Channel Cycling A.530/585hp (E. coli AG100tet; cycle 7): 3.388
- Fluorescence raw data, Channel Cycling A.530/585hp (E. coli AG100tet; cycle 8): 3.388
- Fluorescence raw data, Channel Cycling A.530/585hp (E. coli AG100tet; cycle 45): 4.986
- Fluorescence raw data, Channel Cycling A.530/585hp (E. coli AG100tet; cycle 46): 4.965
- Fluorescence raw data, Channel Cycling A.530/585hp (E. coli AG100tet; cycle 47): 5.035
- Fluorescence raw data, Channel Cycling A.530/585hp (E. coli AG100tet; cycle 48): 5.079
- Fluorescence raw data, Channel Cycling A.530/585hp (E. coli AG100tet; cycle 49): 4.978
- Fluorescence raw data, Channel Cycling A.530/585hp (E. coli AG100tet; cycle 50): 4.9269
- Fluorescence raw data, Channel Cycling A.530/585hp (E. coli AG100tet; cycle 51): 4.971
- Fluorescence raw data, Channel Cycling A.530/585hp (E. coli AG100tet; cycle 52): 4.9136
- Fluorescence raw data, Channel Cycling A.530/585hp (E. coli AG100tet; cycle 53): 4.918
- Fluorescence raw data, Channel Cycling A.530/585hp (E. coli AG100tet; cycle 54): 4.988
- Fluorescence raw data, Channel Cycling A.530/585hp (E. coli AG100tet; cycle 55): 4.908
- Fluorescence raw data, Channel Cycling A.530/585hp (E. coli AG100tet; cycle 56): 4.756
- Fluorescence raw data, Channel Cycling A.530/585hp (E. coli AG100tet; cycle 57): 4.899
- Fluorescence raw data, Channel Cycling A.530/585hp (E. coli AG100tet; cycle 58): 4.813
- Fluorescence raw data, Channel Cycling A.530/585hp (E. coli AG100tet; cycle 59): 4.85
- Fluorescence raw data, Channel Cycling A.530/585hp (E. coli AG100tet; cycle 60): 4.844
- Fluorescence raw data, Channel Cycling A.530/585hp (E. coli AG100tet; cycle 61): 4.688

Source: article PMC5433425 (PeerJ, 2017)
